Record: PubChem BioAssay AID1224828 (NIAID, 2016)

- Aim: 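Find genes required for NF-kappaB p65 moving into the nucleus after LPS in mouse macrophages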 (primary screen)
- Cells: mouse RAW264.7 G9 macrophage reporter cells (GFP-p65, Tnf promoter-mCherry)
- Reagents: siRNA pool against mouse genes, 100 nM
- Time to read-out: 2 days siRNA transfection, then 40 min LPS before fixation
- Treatment: LPS (Salmonella minnesota R595) at 10 ng/ml
- Measured: 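Imaged p65 nuclear translocation ratio, normalised to the plate median, converted to robust z-scores and averaged across two replicates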
- Direction: p65 translocation robust z-score: higher = more nuclear NF-kappaB p65 after LPS than the plate median; nuclear/cytoplasmic p65 ratio: higher = more nuclear NF-kappaB p65
- Active means: 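Active if robust z is above 3.3 (negative regulators) or below -1.56, the Tlr4 control median (positive regulators); activity score 50 or more; control wells not called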
- Calls: active = hit (p65 shift raised or lowered); inactive = no clear change
The whole screen tested about 17,000 reagents; shown is a random part of them. In the full data, 762 (4.5%) are marked active. 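Active calls include both raised and lowered p65 entry, mostly lowered; wells with fewer than 50 cells lack a z-score.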 Raw values vary from plate to plate and are shown uncorrected. No sequences are given here.

gene | p65 translocation robust z-score | nuclear/cytoplasmic p65 ratio, rep 1 | nuclear/cytoplasmic p65 ratio, rep 2 | low cell count flag | call
Clpx | 0.01 | 1.44 | 1.41 | enough cells to score | inactive
Hecw2 | 0.04 | 1.43 | 1.53 | enough cells to score | inactive
Daxx | -0.2 | 1.52 | 1.27 | enough cells to score | inactive
Stxbp1 | 0.61 | 1.49 | 1.31 | enough cells to score | inactive
Trim59 | – | 1.27 | 2.08 | fewer than 50 cells per well; well left out of scoring | inactive
4933431E20Rik | -0.64 | 1.31 | 1.35 | enough cells to score | inactive
Msto1 | -1.34 | 1.43 | 1.56 | enough cells to score | inactive
Grm1 | 0.72 | 1.6 | 1.69 | enough cells to score | inactive
Arrb1 | 0.69 | 1.59 | 1.7 | enough cells to score | inactive
Rbpms2 | – | 1.51 | 1.38 | fewer than 50 cells per well; well left out of scoring | inactive
H2-M11 | 0.55 | 1.68 | 1.67 | enough cells to score | inactive
Mbip | 0.48 | 1.72 | 1.47 | enough cells to score | inactive
Trpv2 | -0.2 | 1.45 | 1.5 | enough cells to score | inactive
Bmi1 | 0.72 | 1.75 | 1.7 | enough cells to score | inactive
Mrpl48 | 1.34 | 1.99 | 1.8 | enough cells to score | inactive
Per3 | 0.15 | 1.48 | 1.25 | enough cells to score | inactive
Riok1 | 0.41 | 1.8 | 1.39 | enough cells to score | inactive
Pomt1 | -0.16 | 1.51 | 1.36 | enough cells to score | inactive
Casp8ap2 | 0.57 | 1.68 | 1.72 | enough cells to score | inactive
Eogt | 0.2 | 1.4 | 1.56 | enough cells to score | inactive
Col19a1 | 0.06 | 1.55 | 1.32 | enough cells to score | inactive
Cotl1 | -0.13 | 1.52 | 1.8 | enough cells to score | inactive
Fpr2 | 0.58 | 1.59 | 1.66 | enough cells to score | inactive
Dolk | 0.25 | 1.4 | 1.17 | enough cells to score | inactive
Dct | 0.19 | 1.36 | 1.38 | enough cells to score | inactive
Ing4 | – | 1.18 | 1.3 | fewer than 50 cells per well; well left out of scoring | inactive
Etnk2 | – | 1.66 | 1.19 | fewer than 50 cells per well; well left out of scoring | inactive
Tpd52 | -0.86 | 1.47 | 1.33 | enough cells to score | inactive
Enpp6 | 0.36 | 1.63 | 1.36 | enough cells to score | inactive
Dnajb4 | 0.3 | 1.47 | 1.43 | enough cells to score | inactive
Tsr1 | – | 1.62 | 1.65 | fewer than 50 cells per well; well left out of scoring | inactive
Spred3 | 1.43 | 1.83 | 1.97 | enough cells to score | inactive
St3gal4 | – | 1.52 | 1.33 | fewer than 50 cells per well; well left out of scoring | inactive
4921524J17Rik | – | 1.52 | 1.78 | fewer than 50 cells per well; well left out of scoring | inactive
Rbm19 | -0.5 | 1.27 | 1.41 | enough cells to score | inactive
Cdkl1 | 1.14 | 1.91 | 1.5 | enough cells to score | inactive
Kank4 | -1.8 | 1.19 | 1.36 | enough cells to score | active
Or4b12 | 1.64 | 1.75 | 1.73 | enough cells to score | inactive
Slc16a10 | -1.48 | 1.16 | 1.13 | enough cells to score | inactive
Eppk1 | -0.74 | 1.47 | 1.38 | enough cells to score | inactive
Prss27 | 1.31 | 2.12 | 1.68 | enough cells to score | inactive
Clec4b1 | – | 1.56 | 1.5 | fewer than 50 cells per well; well left out of scoring | inactive
Fdxacb1 | -2.03 | 1.44 | 1.22 | enough cells to score | active
Zfp365 | 0.45 | 1.5 | 1.28 | enough cells to score | inactive
Dlgap3 | -1.5 | 1.23 | 1.26 | enough cells to score | inactive
Pms1 | 0.28 | 1.55 | 1.43 | enough cells to score | inactive
Kat5 | -0.21 | 1.33 | 1.43 | enough cells to score | inactive
Cip2a | 1.1 | 1.66 | 1.6 | enough cells to score | inactive
Clec3b | -0.6 | 1.53 | 1.34 | enough cells to score | inactive
Gjc3 | -0.42 | 1.54 | 1.4 | enough cells to score | inactive
Spmip10 | -0.68 | 1.33 | 1.31 | enough cells to score | inactive
Clcn1 | 0.59 | 1.49 | 1.5 | enough cells to score | inactive
Dusp11 | -0.58 | 1.4 | 1.3 | enough cells to score | inactive
Tpp2 | 0.01 | 1.39 | 1.17 | enough cells to score | inactive
Cd3d | 0.38 | 1.53 | 1.41 | enough cells to score | inactive
Sarnp | – | 1.32 | 1.42 | fewer than 50 cells per well; well left out of scoring | inactive
Mrpl55 | -1.47 | 1.51 | 1.41 | enough cells to score | inactive
Or4e5 | -0.64 | 1.48 | 1.37 | enough cells to score | inactive
Gpr37l1 | -0.6 | 1.41 | 1.5 | enough cells to score | inactive

Reformatted: entries from further up
gene,p65 translocation robust z-score,"nuclear/cytoplasmic p65 ratio, rep 1","nuclear/cytoplasmic p65 ratio, rep 2",low cell count flag,call
Rbm19,-0.5,1.27,1.41,enough cells to score,inactive
Cdkl1,1.14,1.91,1.5,enough cells to score,inactive
Kank4,-1.8,1.19,1.36,enough cells to score,active
Or4b12,1.64,1.75,1.73,enough cells to score,inactive
